Results reported in article PMC7819137.

Legend:
[1] = biological target: T1, GST-USP47 (ubiquitin-specific protease 47) (UniProt Q96K76); assay: pull-down; GST/GST-USP47 (5 µg) incubated with purified FLAG-MAPK at 4°C overnight; captured on glutathione agarose; Western blot; both purified
T1 sequence: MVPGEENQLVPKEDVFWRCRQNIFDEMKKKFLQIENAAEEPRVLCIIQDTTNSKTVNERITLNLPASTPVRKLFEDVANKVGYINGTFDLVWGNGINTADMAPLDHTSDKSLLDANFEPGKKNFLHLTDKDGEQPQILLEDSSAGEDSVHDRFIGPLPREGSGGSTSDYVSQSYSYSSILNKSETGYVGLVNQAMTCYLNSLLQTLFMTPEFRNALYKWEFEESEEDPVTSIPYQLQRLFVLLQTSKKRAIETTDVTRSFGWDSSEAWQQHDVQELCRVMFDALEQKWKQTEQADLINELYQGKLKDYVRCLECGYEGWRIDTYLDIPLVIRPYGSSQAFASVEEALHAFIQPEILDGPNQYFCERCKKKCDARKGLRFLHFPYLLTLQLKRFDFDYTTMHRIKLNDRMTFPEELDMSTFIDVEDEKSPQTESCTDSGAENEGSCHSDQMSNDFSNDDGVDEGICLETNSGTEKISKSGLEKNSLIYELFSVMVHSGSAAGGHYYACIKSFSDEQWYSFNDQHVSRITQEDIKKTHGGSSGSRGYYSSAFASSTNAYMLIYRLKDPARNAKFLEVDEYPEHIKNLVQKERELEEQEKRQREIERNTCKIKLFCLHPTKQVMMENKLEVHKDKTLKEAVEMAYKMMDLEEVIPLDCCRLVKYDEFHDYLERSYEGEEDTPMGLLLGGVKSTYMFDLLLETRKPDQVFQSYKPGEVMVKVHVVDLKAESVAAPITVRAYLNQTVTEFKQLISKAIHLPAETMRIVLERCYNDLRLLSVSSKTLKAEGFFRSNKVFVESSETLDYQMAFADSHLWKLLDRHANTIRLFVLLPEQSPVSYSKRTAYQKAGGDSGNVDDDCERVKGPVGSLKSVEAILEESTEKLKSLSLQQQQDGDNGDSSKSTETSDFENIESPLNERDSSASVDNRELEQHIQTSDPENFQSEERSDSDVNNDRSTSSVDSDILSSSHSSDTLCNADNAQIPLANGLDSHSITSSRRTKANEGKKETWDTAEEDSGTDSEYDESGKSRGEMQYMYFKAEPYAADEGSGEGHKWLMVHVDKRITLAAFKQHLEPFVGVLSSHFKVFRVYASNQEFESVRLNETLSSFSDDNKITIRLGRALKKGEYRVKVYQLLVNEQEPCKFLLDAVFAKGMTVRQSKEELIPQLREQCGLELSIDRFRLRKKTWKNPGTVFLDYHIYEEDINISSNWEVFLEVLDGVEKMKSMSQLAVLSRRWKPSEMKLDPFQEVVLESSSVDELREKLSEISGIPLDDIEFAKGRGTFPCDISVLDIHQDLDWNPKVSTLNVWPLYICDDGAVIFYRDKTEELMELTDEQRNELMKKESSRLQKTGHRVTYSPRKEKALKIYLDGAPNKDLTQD

[2] = biological target: FLAG-MAPK (mitogen-activated protein kinase); assay: co-IP; overexpression in 293T cells; 1 mg lysate protein with FLAG antibody and Protein A & G agarose, 4°C, 2-4 h; Western blot

FLAG-MAPK (mitogen-activated protein kinase) (enzyme)
binding [1]: binds

B1: USP47 (ubiquitin-specific protease 47), overexpressed in 293T cells (enzyme, UniProt Q96K76 1-1375)
chain: MVPGEENQLVPKEDVFWRCRQNIFDEMKKKFLQIENAAEEPRVLCIIQDTTNSKTVNERITLNLPASTPVRKLFEDVANKVGYINGTFDLVWGNGINTADMAPLDHTSDKSLLDANFEPGKKNFLHLTDKDGEQPQILLEDSSAGEDSVHDRFIGPLPREGSGGSTSDYVSQSYSYSSILNKSETGYVGLVNQAMTCYLNSLLQTLFMTPEFRNALYKWEFEESEEDPVTSIPYQLQRLFVLLQTSKKRAIETTDVTRSFGWDSSEAWQQHDVQELCRVMFDALEQKWKQTEQADLINELYQGKLKDYVRCLECGYEGWRIDTYLDIPLVIRPYGSSQAFASVEEALHAFIQPEILDGPNQYFCERCKKKCDARKGLRFLHFPYLLTLQLKRFDFDYTTMHRIKLNDRMTFPEELDMSTFIDVEDEKSPQTESCTDSGAENEGSCHSDQMSNDFSNDDGVDEGICLETNSGTEKISKSGLEKNSLIYELFSVMVHSGSAAGGHYYACIKSFSDEQWYSFNDQHVSRITQEDIKKTHGGSSGSRGYYSSAFASSTNAYMLIYRLKDPARNAKFLEVDEYPEHIKNLVQKERELEEQEKRQREIERNTCKIKLFCLHPTKQVMMENKLEVHKDKTLKEAVEMAYKMMDLEEVIPLDCCRLVKYDEFHDYLERSYEGEEDTPMGLLLGGVKSTYMFDLLLETRKPDQVFQSYKPGEVMVKVHVVDLKAESVAAPITVRAYLNQTVTEFKQLISKAIHLPAETMRIVLERCYNDLRLLSVSSKTLKAEGFFRSNKVFVESSETLDYQMAFADSHLWKLLDRHANTIRLFVLLPEQSPVSYSKRTAYQKAGGDSGNVDDDCERVKGPVGSLKSVEAILEESTEKLKSLSLQQQQDGDNGDSSKSTETSDFENIESPLNERDSSASVDNRELEQHIQTSDPENFQSEERSDSDVNNDRSTSSVDSDILSSSHSSDTLCNADNAQIPLANGLDSHSITSSRRTKANEGKKETWDTAEEDSGTDSEYDESGKSRGEMQYMYFKAEPYAADEGSGEGHKWLMVHVDKRITLAAFKQHLEPFVGVLSSHFKVFRVYASNQEFESVRLNETLSSFSDDNKITIRLGRALKKGEYRVKVYQLLVNEQEPCKFLLDAVFAKGMTVRQSKEELIPQLREQCGLELSIDRFRLRKKTWKNPGTVFLDYHIYEEDINISSNWEVFLEVLDGVEKMKSMSQLAVLSRRWKPSEMKLDPFQEVVLESSSVDELREKLSEISGIPLDDIEFAKGRGTFPCDISVLDIHQDLDWNPKVSTLNVWPLYICDDGAVIFYRDKTEELMELTDEQRNELMKKESSRLQKTGHRVTYSPRKEKALKIYLDGAPNKDLTQD
binding [2]: binds

Results are given in words; binding and its absence hold for the method and conditions named. A result given as binding can be weak or reduced; the word gives no strength. For some assays here: Where a sequence is shown, tags or fusion partners need not be part of it. For some assays here: Binding seen in cells or lysates may run through a third protein.
